Data from US20140199314A1.
No constants are given. Whether binding was seen depends on the method and setting. Binding seen in cells or lysates may run through a third protein. Some results given as binding are weak or reduced against the parent protein; the word gives no strength. Tags and fused reporters may be left off the sequences shown.

The chains behind the UniProt entries cited, without tags or fusion partners. Where a name states a change or a piece, a line headed by the entry shows the natural chain unless it says otherwise.
UniProt P22004: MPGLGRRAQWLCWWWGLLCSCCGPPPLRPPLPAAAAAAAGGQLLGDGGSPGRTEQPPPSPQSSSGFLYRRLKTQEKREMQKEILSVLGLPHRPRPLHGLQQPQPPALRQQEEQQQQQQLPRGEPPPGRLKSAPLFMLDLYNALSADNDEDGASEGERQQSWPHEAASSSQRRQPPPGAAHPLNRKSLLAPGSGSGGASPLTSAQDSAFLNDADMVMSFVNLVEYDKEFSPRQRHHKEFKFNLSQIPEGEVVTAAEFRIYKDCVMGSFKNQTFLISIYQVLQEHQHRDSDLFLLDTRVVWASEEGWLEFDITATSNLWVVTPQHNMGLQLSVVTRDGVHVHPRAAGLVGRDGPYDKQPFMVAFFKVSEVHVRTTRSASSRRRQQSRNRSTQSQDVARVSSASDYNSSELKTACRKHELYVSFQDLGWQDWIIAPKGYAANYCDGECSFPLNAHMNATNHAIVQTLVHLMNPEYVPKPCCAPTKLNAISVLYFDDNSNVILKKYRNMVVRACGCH

Molecular target: human BMP-6 (human) (UniProt P22004)
Experiment: co-precipitation with hBMP6 and mAb507 on Protein A beads, Western blot

B1: hHJV.His (soluble human hemojuvelin protein, His tagged) (receptor, UniProt Q6ZVN8 36-400, looked up, not shown: small tags and cut ends)
chain: QCKILRCNAEYVSSTLSLRGGGSSGALRGGGGGGRGGGVGSGGLCRALRSYALCTRRTARTCRGDLAFHSAVHGIEDLMIQHNCSRQGPTAPPPPRGPALPGAGSGLPAPDPCDYEGRFSRLHGRPPGFLHCASFGDPHVRSFHHHFHTCRVQGAWPLLDNDFLFVQATSSPMALGANATATRKLTIIFKNMQECIDQKVYQAEVDNLPVAFEDGSINGGDRPGGSSLSIQTANPGNHVEIQAAYIGTTIIIRQTAGQLSFSIKVAEDVAMAFSAEQDLQLCVGGCPPSQRLSRSERNRRGAITIDTARRLCKEGLPVEDAYFHSCVFDVLISGDPNFTVAAQAALEDARAFLPDLEKLHLFPSD
With B1 the binding was “binds”.
